Results are given in words; binding and its absence hold for the method and conditions named. In cells and extracts the contact can be indirect.

This assay has as its target AdhE, endogenous (Streptococcus pneumoniae D39 (endogenous in D39 lysate)). Put plainly: co-IP; S. pneumoniae D39 WT lysate (100 µg) with antibodies against SpAdK, Cps2D or AdhE (negative control), Protein A/G PLUS Agarose, 4 °C; western blotting; no exogenous Mg-ATP added. Background: A western blot detects proteins with antibodies after separation by electrophoresis.

B1: Cps2D, endogenous (enzyme, UniProt Q9ZII6 1-226)
chain: MPTLEISQAKLDFVKKAEEYYNSLCTNLQLSGDGLKVFSITSVKLGEGKSTTSTNIAWAFARAGYKTLLIDGDIRNSVMLGVFKARDKITGLTEFLSGTTDLSQGLCDTNIENLFVIQAGSVSPNPTALLQRKNFSTMLETLRKYFDYIIVDTAPVGVVIDAAIITRKCDASILVTEAGEINRRDIQKAKEQLEHTGKPFLGVVLNKFDTSVDKYGSYGDYGKNKK
Take B1: the binding entry is “no binding”.

B2: GST-SpAdK (Streptococcus pneumoniae adenylate kinase, GST-tagged) (enzyme)
chain: MNLLIMGLPGAGKGTQAAKIVEQFHVAHISTGDMFRAAMANQTEMGVLAKSYIDKGELVPDEVTNGIVKERLSQDDIKETGFLLDGYPRTIEQAHALDKTLAELGIELEGIINIEVNPDSLLERLSGRIIHRVTGETFHKVFNPPVDYKEEDYYQREDDKPETVKRRLDVNIAQGEPIIAHYRAKGLVHDIEGNQDINDVFSDIEKVLTNLK
notes: adenylate kinase of Streptococcus pneumoniae (SpAdK); also called glutathione S-transferase (GST)-SpAdK; pGST-ADK; source: recombinant, purified; plasmid pGST-ADK (E. coli plasmid pGST-parallel 2); cloning and purification in the Supplementary Information
Regarding B2, the binding entry is on record as “no binding”.

Source of the values: paper PMC6123713, “Adenylate kinase potentiates the capsular polysaccharide by modulating Cps2D in Streptococcus pneumoniae D39” (Experimental & Molecular Medicine, 2018).
